From article doi:10.1101/2024.08.15.608058
These are yes or no findings as the source states them, for the method shown. Binding seen in cells or lysates may run through a third protein. A yes stands for co-enrichment or nearness to the bait. Other partners may have been found.

The chains behind the UniProt entries cited, without tags or fusion partners.
UniProt Q5TEA3: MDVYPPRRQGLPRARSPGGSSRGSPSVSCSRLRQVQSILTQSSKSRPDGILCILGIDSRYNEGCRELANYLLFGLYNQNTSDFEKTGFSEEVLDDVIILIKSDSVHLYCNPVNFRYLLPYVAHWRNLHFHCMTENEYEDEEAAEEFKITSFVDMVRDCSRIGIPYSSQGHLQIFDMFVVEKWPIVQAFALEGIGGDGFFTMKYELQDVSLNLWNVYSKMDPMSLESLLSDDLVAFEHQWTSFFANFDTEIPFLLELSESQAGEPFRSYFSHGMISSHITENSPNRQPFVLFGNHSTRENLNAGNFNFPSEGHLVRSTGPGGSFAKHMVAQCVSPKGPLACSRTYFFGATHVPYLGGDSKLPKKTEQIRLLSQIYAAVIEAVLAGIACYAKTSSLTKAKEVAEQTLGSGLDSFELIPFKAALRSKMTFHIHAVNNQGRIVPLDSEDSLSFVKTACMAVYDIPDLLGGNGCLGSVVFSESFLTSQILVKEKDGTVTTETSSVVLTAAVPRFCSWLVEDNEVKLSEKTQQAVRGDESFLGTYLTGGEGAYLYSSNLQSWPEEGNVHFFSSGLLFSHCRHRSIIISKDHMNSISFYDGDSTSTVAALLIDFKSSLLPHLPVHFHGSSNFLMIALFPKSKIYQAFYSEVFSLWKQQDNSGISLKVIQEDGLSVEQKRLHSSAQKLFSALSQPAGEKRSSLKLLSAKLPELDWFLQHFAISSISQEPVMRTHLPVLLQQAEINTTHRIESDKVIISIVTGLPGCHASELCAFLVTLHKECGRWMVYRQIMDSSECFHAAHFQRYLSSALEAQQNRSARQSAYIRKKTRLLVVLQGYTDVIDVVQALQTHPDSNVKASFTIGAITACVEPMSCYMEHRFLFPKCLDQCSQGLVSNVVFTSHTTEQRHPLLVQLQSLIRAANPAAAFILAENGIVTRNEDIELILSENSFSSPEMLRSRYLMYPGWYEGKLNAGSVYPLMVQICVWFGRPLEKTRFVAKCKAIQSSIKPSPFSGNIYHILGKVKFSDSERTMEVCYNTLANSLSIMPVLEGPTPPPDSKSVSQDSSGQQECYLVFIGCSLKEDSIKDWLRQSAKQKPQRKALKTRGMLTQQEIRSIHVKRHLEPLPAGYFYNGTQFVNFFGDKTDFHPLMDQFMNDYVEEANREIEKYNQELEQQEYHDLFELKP

B1: ODAD1 (protein, UniProt Q96M63 1-670)
chain: MEGERRAYSKEVHQRINKQLEEIRRLEEVRGDLQVQISAAQNQVKRLRDSQRLENMDRLLKGRAQVQAEIEELQEQTRALDKQIQEWETRIFTHSKNVRSPGFILDQKVKIRRRIRILENQLDRVTCHFDNQLVRNAALREELDLLRIDRNRYLNVDRKLKKEIHHLHHLVSTLILSSTSAYAVREEAKAKMGLLRERAEKEEAQSEMEAQVLQRQILHLEQLHHFLKLKNNDRQPDPDVLEKREKQAGEVAEGVWKTSQERLVLCYEDALNKLSQLMGESDPDLLVQKYLEIEERNFAEFNFINEQNLELEHVQEEIKEMQEALVSARASKDDQHLLQEQQQKVLQQRMDKVHSEAERLEARFQDVRGQLEKLKADIQLLFTKAHCDSSMIDDLLGVKTSMGDRDMGLFLSLIEKRLVELLTVQAFLHAQSFTSLADAALLVLGQSLEDLPKKMAPLQPPDTLEDPPGFEASDDYPMSREELLSQVEKLVELQEQAEAQRQKDLAAAAAKLDGTLSVDLASTQRAGSSTVLVPTRHPHAIPGSILSHKTSRDRGSLGHVTFGGLSSSTGHLPSHITHGDPNTGHVTFGSTSASSGGHVTFRPVSASSYLGSTGYVGSSRGGENTEGGVESGGTASDSSGGLGSSRDHVSSTGPASSTGPGSSTSKDSRG
B2: DNAI1 (protein, UniProt Q9UI46 1-699)
chain: MIPASAKAPHKQPHKQSISIGRGTRKRDEDSGTEVGEGTDEWAQSKATVRPPDQLELTDAELKEEFTRILTANNPHAPQNIVRYSFKEGTYKPIGFVNQLAVHYTQVGNLIPKDSDEGRRQHYRDELVAGSQESVKVISETGNLEEDEEPKELETEPGSQTDVPAAGAAEKVTEEELMTPKQPKERKLTNQFNFSERASQTYNNPVRDRECQTEPPPRTNFSATANQWEIYDAYVEELEKQEKTKEKEKAKTPVAKKSGKMAMRKLTSMESQTDDLIKLSQAAKIMERMVNQNTYDDIAQDFKYYDDAADEYRDQVGTLLPLWKFQNDKAKRLSVTALCWNPKYRDLFAVGYGSYDFMKQSRGMLLLYSLKNPSFPEYMFSSNSGVMCLDIHVDHPYLVAVGHYDGNVAIYNLKKPHSQPSFCSSAKSGKHSDPVWQVKWQKDDMDQNLNFFSVSSDGRIVSWTLVKRKLVHIDVIKLKVEGSTTEVPEGLQLHPVGCGTAFDFHKEIDYMFLVGTEEGKIYKCSKSYSSQFLDTYDAHNMSVDTVSWNPYHTKVFMSCSSDWTVKIWDHTIKTPMFIYDLNSAVGDVAWAPYSSTVFAAVTTDGKAHIFDLAINKYEAICNQPVAAKKNRLTHVQFNLIHPIIIVGDDRGHIISLKLSPNLRKMPKEKKGQEVQKGPAVEIAKLDKLLNLVREVKIKT
B3: C1ORF87 (protein, UniProt Q8N0U7 1-546)
chain: MSSAWKTPRGSDAMPEIMVKIIGSKHFQYLVEKPKIKENDSLKTETQTMHQKPMTDNARQMSRDTPVPINFTDQQTTDNPDDVKEKKHPENNQKSENNQKLLTGANSSRFLDGNIPSQANVHCSSVPTGDQSLSYVHGIPRRKLRDWSLEQMVRGSSDQPEDIGQSPSGTTNEDAFLLALVRRELKSRPLSSNLLEKLQKELKILDPISSGFLLQSQLSRLFLKHEVPLQLPTVKILCQRFSKRGSPEMVNYEKLLWFLNSAASDYPQQNKAAADLRKTESHGTHSQSTPPQHSSSQPEVNRSLLEILKMALRTTNGRLNIDNLNLSFRKEDRSFSGCLPLPKVRAICGKHGLYLTLSLLETLLNHQDLGYQNEIKWQNFVEMLTRASSDLLSDLPTGKNEKKAPAPPMEPEVPEMSQSKTEHMKTPEEELQPESSPAETSACKDPLKPLKIRPVSQPFVNPAVKNKAEECETWIDRFRKLENALYLCDLSNTGVLEKERARRLIHNYNLIYNLSLSPQKIDQALRRFRSGENMLLEPALRYLKEL
B4: CCDC17 (protein, UniProt Q96LX7 1-622)
chain: MDSHSGEPALLPCGTCDMVFRSSALLATHTQRFCIGHPTQEMTFGAQASVATEPQRAAVVPQEHQGVPQEPQGLPDQQASRSALKRLTEEVQWLRLSLQEMRPWITEVPRVFAGPWTRSEARPQSPMSEAVGSPSERLRALFRTRARRVAEMEAQSRALQLRGEELSRRLQVVACTRGGMSRLFGLEQEIRELQAEAGRTRGALEVLGARIQELQAEPGNPLSSRREAELYSPVQKANPGTLAAEIRALREAYIRDGGRDPGVLGQIWQLQVEASALELQRSQTRRGRAGATSGELPVVEAENRRLEAEILALQMQRGRAPLGPQDLRLLGDASLQPKGRRDPPLLPPPVAPPLPPLPGFSEPQLPGTMTRNLGLDSHFLLPTSDMLGPAPYDPGAGLVIFYDFLRGLEASWIWVQLRTGLARDGRDTGRTTALPPALCLPPPPAPGPMGNCAILASRQPVPRLPPSSSVSLVCELQVWQGLAWARAPQPKAWVSLGLFDQDQRVLSGRWRLPLRALPLDPSLSLGQLNGIPQAGQAELFLRLVNARDAAVQTLAEINPASVHEYQYPPPVSSTSSLEASFLTPAVGFADPPPRTEEPLSGVKDRDEGLGPHHSSDLPPVSF
B5: IFT74 (protein, UniProt Q96LB3 1-600)
chain: MASNHKSSAARPVSRGGVGLTGRPPSGIRPLSGNIRVATAMPPGTARPGSRGCPIGTGGVLSSQIKVAHRPVTQQGLTGMKTGTKGPQRQILDKSYYLGLLRSKISELTTEVNKLQKGIEMYNQENSVYLSYEKRAETLAVEIKELQGQLADYNMLVDKLNTNTEMEEVMNDYNMLKAQNDRETQSLDVIFTERQAKEKQIRSVEEEIEQEKQATDDIIKNMSFENQVKYLEMKTTNEKLLQELDTLQQQLDSQNMKKESLEAEIAHSQVKQEAVLLHEKLYELESHRDQMIAEDKSIGSPMEEREKLLKQIKDDNQEIASMERQLTDTKEKINQFIEEIRQLDMDLEEHQGEMNQKYKELKKREEHMDTFIETFEETKNQELKRKAQIEANIVALLEHCSRNINRIEQISSITNQELKMMQDDLNFKSTEVQKSQSTAQNLTSDIQRLQLDLQKMELLESKMTEEQHSLKSKIKQMTTDLEIYNDLPALKSSGEEKIKKLHQERMILSTHRNAFKKIMEKQNIEYEALKTQLQENETHSQLTNLERKWQHLEQNNFAMKEFIATKSQESDYQPIKKNVTKQIAEYNKTIVDALHSTSGN
B6: ODAD4 (protein, UniProt Q96NG3 1-672)
chain: MSDPEGETLRSTFPSYMAEGERLYLCGEFSKAAQSFSNALYLQDGDKNCLVARSKCFLKMGDLERSLKDAEASLQSDPAFCKGILQKAETLYTMGDFEFALVFYHRGYKLRPDREFRVGIQKAQEAINNSVGSPSSIKLENKGDLSFLSKQAENIKAQQKPQPMKHLLHPTKGEPKWKASLKSEKTVRQLLGELYVDKEYLEKLLLDEDLIKGTMKGGLTVEDLIMTGINYLDTHSNFWRQQKPIYARERDRKLMQEKWLRDHKRRPSQTAHYILKSLEDIDMLLTSGSAEGSLQKAEKVLKKVLEWNKEEVPNKDELVGNLYSCIGNAQIELGQMEAALQSHRKDLEIAKEYDLPDAKSRALDNIGRVFARVGKFQQAIDTWEEKIPLAKTTLEKTWLFHEIGRCYLELDQAWQAQNYGEKSQQCAEEEGDIEWQLNASVLVAQAQVKLRDFESAVNNFEKALERAKLVHNNEAQQAIISALDDANKGIIRELRKTNYVENLKEKSEGEASLYEDRIITREKDMRRVRDEPEKVVKQWDHSEDEKETDEDDEAFGEALQSPASGKQSVEAGKARSDLGAVAKGLSGELGTRSGETGRKLLEAGRRESREIYRRPSGELEQRLSGEFSRQEPEELKKLSEVGRREPEELGKTQFGEIGETKKTGNEMEKEYE
B7: IFT81 (protein, UniProt Q8WYA0 1-676)
chain: MSDQIKFIMDSLNKEPFRKNYNLITFDSLEPMQLLQVLSDVLAEIDPKQLVDIREEMPEQTAKRMLSLLGILKYKPSGNATDMSTFRQGLVIGSKPVIYPVLHWLLQRTNELKKRAYLARFLIKLEVPSEFLQDETVADTNKQYEELMEAFKTLHKEYEQLKISGFSTAEIRKDISAMEEEKDQLIKRVEHLKKRVETAQNHQWMLKIARQLRVEKEREEYLAQQKQEQKNQLFHAVQRLQRVQNQLKSMRQAAADAKPESLMKRLEEEIKFNLYMVTEKFPKELENKKKELHFLQKVVSEPAMGHSDLLELESKINEINTEINQLIEKKMMRNEPIEGKLSLYRQQASIISRKKEAKAEELQEAKEKLASLEREASVKRNQTREFDGTEVLKGDEFKRYVNKLRSKSTVFKKKHQIIAELKAEFGLLQRTEELLKQRHENIQQQLQTMEEKKGISGYSYTQEELERVSALKSEVDEMKGRTLDDMSEMVKKLYSLVSEKKSALASVIKELRQLRQKYQELTQECDEKKSQYDSCAAGLESNRSKLEQEVRRLREECLQEESRYHYTNCMIKNLEVQLRRATDEMKAYISSDQQEKRKAIREQYTKNTAEQENLGKKLREKQKVIRESHGPNMKQAKMWRDLEQLMECKKQCFLKQQSQTSIGQVIQEGGEDRLIL
B8: ENKUR (protein, UniProt Q8TC29 1-256)
chain: MDPTCSSECIYNLIPSDLKEPPQPPRYISIFKATVKDDMQKAKTAMKTMGPAKVEVPSPKDFLKKHSKEKTLPPKKNFDRNVPKKPAVPLKTDHPVMGIQSGKNFINTNAADIIMGVAKKPKPIYVDKRTGDKHDLEPSGLVPKYINKKDYGVTPEYICKRNEEIKKAQEDYDRYIQENLKKAAMKRLSDEEREAVLQGLKKNWEEVHKEFQSLSVFIDSIPKKIRKQRLEEEMKQLEHDIGIIEKHKIIYIANNA
B9: CFAP57 (protein, UniProt Q96MR6 1-1250)
chain: MSAVVAQTLHVFGLRSHVANNIFYFDEQIIIFPSGNHCVKYNVDQKWQKFIPGSEKSQGMLALSISPNRRYLAISETVQEKPAITIYELSSIPCRKRKVLNNFDFQVQKFISMAFSPDSKYLLAQTSPPESNLVYWLWEKQKVMAIVRIDTQNNPVYQVSFSPQDNTQVCVTGNGMFKLLRFAEGTLKQTSFQRGEPQNYLAHTWVADDKIVVGTDTGKLFLFESGDQRWETSIMVKEPTNGSKSLDVIQESESLIEFPPVSSPLPSYEQMVAASSHSQMSMPQVFAIAAYSKGFACSAGPGRVLLFEKMEEKDFYRESREIRIPVDPQSNDPSQSDKQDVLCLCFSPSEETLVASTSKNQLYSITMSLTEISKGEPAHFEYLMYPLHSAPITGLATCIRKPLIATCSLDRSIRLWNYETNTLELFKEYQEEAYSISLHPSGHFIVVGFADKLRLMNLLIDDIRSFKEYSVRGCGECSFSNGGHLFAAVNGNVIHVYTTTSLENISSLKGHTGKIRSIVWNADDSKLISGGTDGAVYEWNLSTGKRETECVLKSCSYNCVTVSPDAKIIFAVGSDHTLKEIADSLILREISAFDVTYTAIVISHSGRMMFVGTSVGTIRAMKYPLPLQKEFNEYQAHAGPITKMLLTFDDQFLLTAAEDGCLFTWKVFDKDGRGIKREREVGFAEEVLVTKTDMEEKAQVMLELKTRVEELKMENEYQLRLKDMNYSEKIKELTDKFIQEMESLKTKNQVLRTEKEKQDVYHHEHIEDLLDKQSRELQDMECCNNQKLLLEYEKYQELQLKSQRMQEEYEKQLRDNDETKSQALEELTEFYEAKLQEKTTLLEEAQEDVRQQLREFEETKKQIEEDEDREIQDIKTKYEKKLRDEKESNLRLKGETGIMRKKFSSLQKEIEERTNDIETLKGEQMKLQGVIKSLEKDIQGLKREIQERDETIQDKEKRIYDLKKKNQELGKFKFVLDYKIKELKKQIEPRENEIRVMKEQIQEMEAELENFHKQNTQLELNITELWQKLRATDQEMRRERQKERDLEALVKRFKTDLHNCVAYIQEPRLLKEKVRGLFEKYVQRADMVEIAGLNTDLQQEYTRQREHLERNLATLKKKVVKEGELHRTDYVRIMQENVSLIKEINELRRELKFTRSQVYDLEAALKLTKKVRPQEVSETEPSRDMLSTAPTARLNEQEETGRIIEMQRLEIQRLRDQIQEQEQVTGFHTLAGVRLPSLSNSEVDLEVKTN

What follows are binders tested against DNAAF9 (human Shulin), endogenous in human airway epithelial cells (human (endogenous in HAECs)) (UniProt Q5TEA3) (assay: affinity purification with mass spectrometry).
In the case of B1, the binding is reported as “binds”. In the case of B2, the binding is reported as “binds”. For B3, the binding was “binds”. For B4, the binding was “binds”. In the case of B5, the binding is reported as “binds”. In the case of B6, the binding is reported as “binds”. With B7 the binding was “binds”. B8 was tested, and the binding was “binds”. B9 was tested, and the binding was “binds”.
